The values below come from patent publication US9868722B2, “Monocyclic pyrimidine/pyridine compounds as inhibitors of P97 complex” (Cleave Biosciences, Inc., priority 2013, dated 2018).

For the data set, the system named is Caco-2 cell monolayers. Conditions: pH 7.4, range over 12 inter-day experiments.

Take `CC(C)NCC(O)COc1ccc(CC(N)=O)cc1` (centres unmarked) [Atenolol]: the “Peff (×E-6 cm/sec) in pH 7.4 Caco-2, A B, Range” value (A to B) is listed as 0.69-1.80 ×E-6 cm/sec. Moreover, the “Peff (×E-6 cm/sec) in pH 7.4 Caco-2, B A, Range” value (B to A) is given as 1.69-2.68 ×E-6 cm/sec.
